Assay [1] addresses Cep63 (440–490) (L469A, N473R, V480K) (human) (UniProt Q96MT8). As to the kind of experiment: SEC; SEC elution of Cep63 (440–490) triple mutants (Supplementary Fig. 3d); both purified. On the technique in general: Size exclusion chromatography separates by hydrodynamic size, large species first.
The target in assay [2] is mGFP-Cep152 (I1279D, L1286D) (human) (UniProt O94986). As to the kind of experiment: co-IP; lysates of transfected cells in TBSN buffer (20 mM Tris-HCl pH 8.0, 100 mM NaCl, 0.5% Nonidet P-40, 5 mM EGTA, 1.5 mM EDTA); anti-GFP antibody and protein A-agarose; immunoblot. For orientation: A western blot detects proteins with antibodies after separation by electrophoresis.
The target of a further assay is mGFP-Cep152 WT (human) (UniProt O94986). The description is as above.
Assay [3] addresses mGFP-Cep152∆(1273–1295) (human) (UniProt O94986). The assay is described as above.

Chains of the proteins cited; added tags and fusions are not shown. Lines headed by an entry give the natural chain unless they say otherwise; changes in a name come on top. A line that says so, or that is headed by a name, gives the form on record, which may keep a tag or linker.
mGFP-Cep152 (I1279D, L1286D) (O94986, form named): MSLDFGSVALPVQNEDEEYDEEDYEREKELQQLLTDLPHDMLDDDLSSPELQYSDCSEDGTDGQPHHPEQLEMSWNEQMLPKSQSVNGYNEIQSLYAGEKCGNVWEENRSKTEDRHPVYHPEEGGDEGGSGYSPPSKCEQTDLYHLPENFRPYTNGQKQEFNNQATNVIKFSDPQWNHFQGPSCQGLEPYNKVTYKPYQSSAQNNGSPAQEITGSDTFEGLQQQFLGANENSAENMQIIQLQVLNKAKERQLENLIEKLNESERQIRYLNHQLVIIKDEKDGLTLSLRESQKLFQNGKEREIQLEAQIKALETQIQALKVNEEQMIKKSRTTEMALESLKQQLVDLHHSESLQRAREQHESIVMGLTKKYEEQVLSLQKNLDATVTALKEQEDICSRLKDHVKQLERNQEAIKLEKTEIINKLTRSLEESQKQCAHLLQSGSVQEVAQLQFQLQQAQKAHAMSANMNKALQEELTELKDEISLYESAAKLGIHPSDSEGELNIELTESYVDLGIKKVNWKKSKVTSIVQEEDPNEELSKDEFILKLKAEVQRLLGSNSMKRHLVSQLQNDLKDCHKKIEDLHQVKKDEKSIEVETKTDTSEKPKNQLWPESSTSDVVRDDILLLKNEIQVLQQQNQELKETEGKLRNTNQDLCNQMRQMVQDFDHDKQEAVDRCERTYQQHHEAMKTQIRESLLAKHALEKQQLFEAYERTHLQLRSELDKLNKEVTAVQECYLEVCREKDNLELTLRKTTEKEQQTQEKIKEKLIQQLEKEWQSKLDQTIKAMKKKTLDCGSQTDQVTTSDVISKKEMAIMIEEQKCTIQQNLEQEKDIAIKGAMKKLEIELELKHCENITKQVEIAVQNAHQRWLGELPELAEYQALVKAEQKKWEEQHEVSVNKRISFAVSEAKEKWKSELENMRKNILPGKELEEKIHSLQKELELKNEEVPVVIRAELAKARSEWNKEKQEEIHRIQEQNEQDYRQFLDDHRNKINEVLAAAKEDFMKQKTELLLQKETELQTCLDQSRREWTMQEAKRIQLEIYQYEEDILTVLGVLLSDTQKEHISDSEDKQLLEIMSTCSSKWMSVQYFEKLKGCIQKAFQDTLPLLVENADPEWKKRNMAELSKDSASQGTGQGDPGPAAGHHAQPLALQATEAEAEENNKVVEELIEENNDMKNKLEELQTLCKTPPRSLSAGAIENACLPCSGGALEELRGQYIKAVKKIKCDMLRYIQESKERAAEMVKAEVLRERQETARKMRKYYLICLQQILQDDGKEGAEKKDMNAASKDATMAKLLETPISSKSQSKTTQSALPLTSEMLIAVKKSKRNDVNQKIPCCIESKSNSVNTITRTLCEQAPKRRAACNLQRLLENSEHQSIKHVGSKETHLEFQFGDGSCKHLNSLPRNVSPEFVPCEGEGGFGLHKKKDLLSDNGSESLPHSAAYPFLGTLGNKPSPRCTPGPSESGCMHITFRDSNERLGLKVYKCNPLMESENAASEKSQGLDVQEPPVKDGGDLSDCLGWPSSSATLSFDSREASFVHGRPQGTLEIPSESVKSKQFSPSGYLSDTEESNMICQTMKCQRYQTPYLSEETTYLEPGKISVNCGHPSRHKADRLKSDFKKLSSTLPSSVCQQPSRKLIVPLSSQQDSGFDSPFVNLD
mGFP-Cep152 WT (O94986, form named): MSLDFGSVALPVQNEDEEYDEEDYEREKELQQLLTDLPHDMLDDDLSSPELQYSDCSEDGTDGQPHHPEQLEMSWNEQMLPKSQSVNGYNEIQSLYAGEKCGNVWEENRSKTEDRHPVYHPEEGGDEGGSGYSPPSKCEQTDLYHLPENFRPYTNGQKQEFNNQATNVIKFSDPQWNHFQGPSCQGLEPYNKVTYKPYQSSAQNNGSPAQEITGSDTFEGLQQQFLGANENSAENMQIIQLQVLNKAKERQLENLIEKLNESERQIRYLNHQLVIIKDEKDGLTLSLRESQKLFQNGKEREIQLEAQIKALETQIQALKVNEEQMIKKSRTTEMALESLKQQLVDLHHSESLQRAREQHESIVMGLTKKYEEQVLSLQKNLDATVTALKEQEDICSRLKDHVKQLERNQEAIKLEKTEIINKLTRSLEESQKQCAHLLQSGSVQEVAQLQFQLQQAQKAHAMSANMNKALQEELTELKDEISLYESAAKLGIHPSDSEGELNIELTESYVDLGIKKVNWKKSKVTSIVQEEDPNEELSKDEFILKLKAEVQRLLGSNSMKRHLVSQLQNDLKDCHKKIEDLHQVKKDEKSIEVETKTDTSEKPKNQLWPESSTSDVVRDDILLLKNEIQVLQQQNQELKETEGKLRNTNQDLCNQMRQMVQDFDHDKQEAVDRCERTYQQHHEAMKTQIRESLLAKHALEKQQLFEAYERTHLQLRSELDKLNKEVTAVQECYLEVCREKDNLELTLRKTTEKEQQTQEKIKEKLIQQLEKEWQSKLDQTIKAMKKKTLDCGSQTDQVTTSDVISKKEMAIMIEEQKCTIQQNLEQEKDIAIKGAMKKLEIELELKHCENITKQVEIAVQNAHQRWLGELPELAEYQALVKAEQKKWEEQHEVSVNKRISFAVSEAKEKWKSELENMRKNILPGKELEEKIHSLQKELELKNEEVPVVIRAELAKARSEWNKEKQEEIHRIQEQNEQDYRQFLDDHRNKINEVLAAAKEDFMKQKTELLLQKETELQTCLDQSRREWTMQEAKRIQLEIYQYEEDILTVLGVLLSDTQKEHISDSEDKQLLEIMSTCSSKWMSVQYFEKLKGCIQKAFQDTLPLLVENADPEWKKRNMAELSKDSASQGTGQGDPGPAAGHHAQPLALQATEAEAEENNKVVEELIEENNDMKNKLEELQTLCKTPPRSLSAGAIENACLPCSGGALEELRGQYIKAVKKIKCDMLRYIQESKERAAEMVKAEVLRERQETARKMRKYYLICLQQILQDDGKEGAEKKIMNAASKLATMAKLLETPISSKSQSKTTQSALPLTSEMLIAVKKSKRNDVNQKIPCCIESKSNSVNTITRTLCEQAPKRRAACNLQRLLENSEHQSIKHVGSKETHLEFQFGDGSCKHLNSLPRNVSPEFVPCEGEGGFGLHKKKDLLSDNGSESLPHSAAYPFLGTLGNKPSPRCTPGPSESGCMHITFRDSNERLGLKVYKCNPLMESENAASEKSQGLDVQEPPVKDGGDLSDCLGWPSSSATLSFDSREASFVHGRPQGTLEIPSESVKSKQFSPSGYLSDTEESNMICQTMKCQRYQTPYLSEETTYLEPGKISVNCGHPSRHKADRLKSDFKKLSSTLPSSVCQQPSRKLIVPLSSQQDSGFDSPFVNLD
mGFP-Cep152∆(1273–1295) (O94986, form named): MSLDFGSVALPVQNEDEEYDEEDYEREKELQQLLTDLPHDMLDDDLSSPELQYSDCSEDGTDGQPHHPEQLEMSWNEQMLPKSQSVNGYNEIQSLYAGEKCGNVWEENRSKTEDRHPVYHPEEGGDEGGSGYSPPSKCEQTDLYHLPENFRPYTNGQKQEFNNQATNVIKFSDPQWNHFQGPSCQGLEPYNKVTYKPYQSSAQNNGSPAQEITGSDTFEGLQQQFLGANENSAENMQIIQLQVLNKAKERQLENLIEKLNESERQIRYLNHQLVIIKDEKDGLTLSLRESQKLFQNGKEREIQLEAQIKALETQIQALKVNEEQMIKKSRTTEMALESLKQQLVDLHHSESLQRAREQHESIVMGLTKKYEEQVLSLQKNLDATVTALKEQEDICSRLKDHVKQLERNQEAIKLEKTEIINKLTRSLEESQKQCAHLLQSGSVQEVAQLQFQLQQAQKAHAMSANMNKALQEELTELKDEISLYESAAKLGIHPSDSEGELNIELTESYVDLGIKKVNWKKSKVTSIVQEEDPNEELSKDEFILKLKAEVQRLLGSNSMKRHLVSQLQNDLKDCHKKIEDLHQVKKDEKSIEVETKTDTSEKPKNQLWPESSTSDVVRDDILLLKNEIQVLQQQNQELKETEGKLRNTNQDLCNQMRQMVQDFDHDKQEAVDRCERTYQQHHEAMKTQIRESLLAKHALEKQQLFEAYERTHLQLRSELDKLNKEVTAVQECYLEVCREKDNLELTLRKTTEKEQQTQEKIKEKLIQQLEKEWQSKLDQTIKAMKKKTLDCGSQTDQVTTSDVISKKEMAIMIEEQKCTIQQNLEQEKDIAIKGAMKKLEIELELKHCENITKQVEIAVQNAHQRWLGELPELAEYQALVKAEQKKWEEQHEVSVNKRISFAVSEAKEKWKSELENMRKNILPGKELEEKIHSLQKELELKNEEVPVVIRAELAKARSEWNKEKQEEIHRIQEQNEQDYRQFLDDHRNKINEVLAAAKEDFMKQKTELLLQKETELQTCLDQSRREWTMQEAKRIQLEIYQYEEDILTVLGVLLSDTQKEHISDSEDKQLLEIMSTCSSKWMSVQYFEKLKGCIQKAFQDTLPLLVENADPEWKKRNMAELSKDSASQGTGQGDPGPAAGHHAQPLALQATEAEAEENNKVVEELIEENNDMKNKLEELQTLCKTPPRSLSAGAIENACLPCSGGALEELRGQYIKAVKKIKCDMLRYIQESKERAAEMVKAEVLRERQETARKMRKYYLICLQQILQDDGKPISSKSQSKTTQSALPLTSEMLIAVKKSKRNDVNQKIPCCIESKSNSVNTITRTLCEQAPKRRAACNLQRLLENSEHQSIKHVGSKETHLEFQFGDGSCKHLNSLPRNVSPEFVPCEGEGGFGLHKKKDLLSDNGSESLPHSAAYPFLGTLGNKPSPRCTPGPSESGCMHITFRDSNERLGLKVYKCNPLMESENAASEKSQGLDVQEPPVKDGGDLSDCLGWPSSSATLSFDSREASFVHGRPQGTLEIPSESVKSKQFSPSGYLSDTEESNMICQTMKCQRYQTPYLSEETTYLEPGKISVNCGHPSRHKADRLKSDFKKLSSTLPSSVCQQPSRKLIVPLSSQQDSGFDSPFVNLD

These are yes or no findings as the source states them, for the method shown. For some of these results: Binding seen in cells or lysates may run through a third protein. Some entries that bind do so weakly or less than the wild type. For some of these results: Where a sequence is shown, tags or fusion partners need not be part of it.

B1: Cep63 (440–490) (L469A, N473R, V480K) (domain or fragment, UniProt Q96MT8 440-490)
chain: DMEKRLRAEMQKAEDKAVEHKEILDQLESAKLERRHLSEMKMKLELGLHEA
Consider B1, for which the binding entry in assay [1] is listed as “no binding”.

B2: FLAG-Plk4 (enzyme, UniProt O00444 1-970)
chain: MATCIGEKIEDFKVGNLLGKGSFAGVYRAESIHTGLEVAIKMIDKKAMYKAGMVQRVQNEVKIHCQLKHPSILELYNYFEDSNYVYLVLEMCHNGEMNRYLKNRVKPFSENEARHFMHQIITGMLYLHSHGILHRDLTLSNLLLTRNMNIKIADFGLATQLKMPHEKHYTLCGTPNYISPEIATRSAHGLESDVWSLGCMFYTLLIGRPPFDTDTVKNTLNKVVLADYEMPSFLSIEAKDLIHQLLRRNPADRLSLSSVLDHPFMSRNSSTKSKDLGTVEDSIDSGHATISTAITASSSTSISGSLFDKRRLLIGQPLPNKMTVFPKNKSSTDFSSSGDGNSFYTQWGNQETSNSGRGRVIQDAEERPHSRYLRRAYSSDRSGTSNSQSQAKTYTMERCHSAEMLSVSKRSGGGENEERYSPTDNNANIFNFFKEKTSSSSGSFERPDNNQALSNHLCPGKTPFPFADPTPQTETVQQWFGNLQINAHLRKTTEYDSISPNRDFQGHPDLQKDTSKNAWTDTKVKKNSDASDNAHSVKQQNTMKYMTALHSKPEIIQQECVFGSDPLSEQSKTRGMEPPWGYQNRTLRSITSPLVAHRLKPIRQKTKKAVVSILDSEEVCVELVKEYASQEYVKEVLQISSDGNTITIYYPNGGRGFPLADRPPSPTDNISRYSFDNLPEKYWRKYQYASRFVQLVRSKSPKITYFTRYAKCILMENSPGADFEVWFYDGVKIHKTEDFIQVIEKTGKSYTLKSESEVNSLKEEIKMYMDHANEGHRICLALESIISEEERKTRSAPFFPIIIGRKPGSTSSPKALSPPPSVDSNYPTRERASFNRMVMHSAASPTQAPILNPSMVTNEGLGLTTTASGTDISSNSLKDCLPKSAQLLKSVFVKNVGWATQLTSGAVWVQFNDGSQLVVQAGVSSISYTSPNGQTTRYGENEKLPDYIKQKLQCLSSILLMFSNPTPNFH
As to B2, the binding entry (in assay [2]; in the assay with mGFP-Cep152 WT (human); in assay [3]) was “binds” in each case.

For the origin of these results see PMC10336005, “Architectural basis for cylindrical self-assembly governing Plk4-mediated centriole duplication in human cells” (Communications Biology, 2023).
